Data as given in PubChem BioAssay AID504793 (Drosophila RNAi Screening Center, 2011)
Purpose: 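Knock-downs allowing continued mitosis even though DNA is damaged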 (primary screen). Cells: Drosophila S2R+ cells. Reagent: long dsRNA against Drosophila genes, about 0.25 µg dsRNA per well. Timing: 4 days of dsRNA, then 4 hours of drug before read-out. Challenge: doxorubicin 0.5 µM for 4 hours to cause double-strand breaks, in cells also given a low, harmless dose of dsRNA against nbs to sensitise the assay. Measured: 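Per-well count of mitotic cells stained for phospho-histone H3 after doxorubicin exposure, used as mitotic index; counts are raw and not normalised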. Reading the numbers: mitotic cells: higher = more cells in mitosis, weaker G2 arrest. Call rule: 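Genes are called active only when high mitotic counts were reproduced with independent dsRNAs and mitosis was checked for delay without damage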. Calls: active = confirmed in follow-up tests; inactive = not confirmed.
The deposit covers about 23,000 reagents; this is an unselected part of those with a known target gene and a result. Of all reagents, 62 (0.27%) are marked active. 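Calls come from follow-up tests whose scores are not deposited, so confirmed genes may have low counts here; counts are not normalised per plate.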 Raw values vary from plate to plate and are shown uncorrected. A plus sign joins genes that one reagent is predicted to hit. Reagent sequences are not shown.

| target gene | amplicon | mitotic cells, replicate 1 | Call |
| --- | --- | --- | --- |
| slf | DRSC00583 | 1 | inactive |
| slf | DRSC27361 | 9 | inactive |
| pim | DRSC03591 | 13 | inactive |
| Usp7 | DRSC18909 | 6 | inactive |
| Usp7 | DRSC19604 | 11 | inactive |
| Usp7 | DRSC26109 | 10 | inactive |
| HDAC4 | DRSC19780 | 13 | inactive |
| HDAC4 | DRSC25237 | 5 | inactive |
| E5 | DRSC13000 | 16 | inactive |
| E5 | DRSC23157 | 8 | inactive |
| E5 | DRSC28326 | 4 | inactive |
| Nemp | DRSC20206 | 6 | inactive |
| Nemp | DRSC26963 | 6 | inactive |
| IleRS-m | DRSC10506 | 6 | inactive |
| Arl1 | DRSC09667 | 6 | inactive |
| CG33966 | DRSC08256 | 4 | inactive |
| CG33966 | DRSC25718 | 4 | inactive |
| CG42360 | DRSC04224 | 10 | inactive |
| CG31882 | DRSC01084 | 3 | inactive |
| nAChRbeta1 | DRSC08097 | 8 | inactive |
| nAChRbeta1 | DRSC08728 | 7 | inactive |
| Gr47b | DRSC05275 | 8 | inactive |
| CG10013 | DRSC14175 | 8 | inactive |
| Acp24A4 | DRSC22352 | 13 | inactive |
| Pstk + CG14210 + Tim9b | DRSC19566 | 6 | inactive |
| Pstk + CG14210 + Tim9b | DRSC29021 | 7 | inactive |
| nocte | DRSC18123 | 9 | inactive |
| nocte | DRSC28453 | 5 | inactive |
| alpha4GT1 | DRSC00488 | 4 | inactive |
| CG7457 | DRSC10849 | 4 | inactive |
| CG7457 | DRSC27107 | 5 | inactive |
| CG7290 | DRSC10800 | 8 | inactive |
| CG7290 | DRSC26651 | 6 | inactive |
| IFT52 | DRSC03271 | 10 | inactive |
| IFT52 | DRSC28697 | 10 | inactive |
| CG43897 | DRSC10967 | 3 | inactive |
| CG43897 | DRSC25785 | 10 | inactive |
| CG30259 | DRSC04164 | 6 | inactive |
| CG30259 | DRSC04165 | 4 | inactive |
| Cyp310a1 | DRSC03301 | 5 | inactive |
| Cyp310a1 | DRSC29160 | 8 | inactive |
| mRpL9 | DRSC15678 | 8 | inactive |
| mRpL9 | DRSC27528 | 6 | inactive |
| Set | DRSC16861 | 5 | inactive |
| ScsbetaA | DRSC14446 | 3 | inactive |
| ScsbetaA | DRSC27770 | 6 | inactive |
| Hsc70-4 | DRSC16711 | 3 | inactive |
| Hsc70-4 | DRSC29729 | 7 | inactive |
| mRpS17 | DRSC04463 | 2 | inactive |
| witty | DRSC02378 | 10 | inactive |
| witty | DRSC21650 | 7 | inactive |
| witty | DRSC26154 | 5 | inactive |
| CG14711 + Zaf1 | DRSC14934 | 4 | inactive |
| CG14711 + Zaf1 | DRSC23982 | 7 | inactive |
| BORCS5 | DRSC19427 | 8 | inactive |
| BORCS5 | DRSC26187 | 7 | inactive |
| Cyp6a14 (retired record) | DRSC07376 | 5 | inactive |
| Cyp6a14 (retired record) | DRSC24704 | 5 | inactive |
| CG5966 | DRSC18394 | 6 | inactive |
| Osi24 | DRSC12275 | 6 | inactive |
| Idgf1 | DRSC03349 | 6 | inactive |
| Idgf1 | DRSC26045 | 4 | inactive |
| kumpel | DRSC14883 | 6 | inactive |
| kumpel | DRSC16459 | 8 | inactive |
| kumpel | DRSC16460 | 9 | inactive |
| kumpel | DRSC16461 | 8 | inactive |
| kumpel | DRSC16462 | 5 | inactive |
| kumpel | DRSC16463 | 8 | inactive |
| kumpel | DRSC25593 | 8 | inactive |
| kumpel | DRSC27664 | 6 | inactive |
| CG8170 | DRSC07087 | 3 | inactive |
| CG8908 | DRSC07297 | 5 | inactive |
| tplus3b + tplus3a | DRSC26400 | 11 | inactive |
| Cdc16 | DRSC16920 | 141 | inactive |
| Ran-like | DRSC10918 | 5 | inactive |

No new results follow: an excerpt of the list.
| target gene | amplicon | mitotic cells, replicate 1 | Call |
| --- | --- | --- | --- |
| CG31882 | DRSC01084 | 3 | inactive |
| nAChRbeta1 | DRSC08097 | 8 | inactive |
| nAChRbeta1 | DRSC08728 | 7 | inactive |
| Gr47b | DRSC05275 | 8 | inactive |
| CG10013 | DRSC14175 | 8 | inactive |
| Acp24A4 | DRSC22352 | 13 | inactive |
| Pstk + CG14210 + Tim9b | DRSC19566 | 6 | inactive |
| Pstk + CG14210 + Tim9b | DRSC29021 | 7 | inactive |
| nocte | DRSC18123 | 9 | inactive |
| nocte | DRSC28453 | 5 | inactive |
